The list does not hold the whole screen: it covers a few groups of compounds. Other doses and runs of a compound may be missing. T/C: endpoint of the treated group in % of that of the vehicle group. Where survival is the endpoint, this PubChem deposit counts one and a half times the control or more as active, and values a quarter to a half above the control carry no call in these data; other NCI protocols may use other cut-offs. Some entries show no survivor count and are marked so; the dose need not have been tolerated. Schedules are NCI's codes, read here as Q, the interval in days (D) or hours (H), X, the number of doses. Some entries hold several experiments; the results are listed from low to high.
System: L1210 leukemia ip in BDF1 mice, survival T/C
Test: NCI In Vivo Anticancer Drug Screen. Data for tumor model L1210 Leukemia (intraperitoneal) in B6D2F1 (BDF1) mice
Details: T/C endpoint: mean survival time, higher T/C = longer survival

O=P(Cl)(N(CCCl)CCCl)N(CCCl)CCCl
T/C (dose: 6.25 mg/kg/injection, schedule: Q04DX003 (ip), vehicle: DMSO): 109 % of control [survivor count not shown]
T/C (dose: 12.5 mg/kg/injection, schedule: Q04DX003 (ip), vehicle: DMSO): 121 % of control [survivor count not shown]
T/C (dose: 25.0 mg/kg/injection, schedule: Q01DX001 (ip), vehicle: DMSO): 126 % of control [survivor count not shown]
T/C (dose: 25.0 mg/kg/injection, schedule: Q04DX003 (ip), vehicle: DMSO): 125 % of control [survivor count not shown]
T/C (dose: 50.0 mg/kg/injection, schedule: Q01DX001 (ip), vehicle: DMSO): 128 % of control [survivor count not shown]
T/C (dose: 100.0 mg/kg/injection, schedule: Q01DX001 (ip), vehicle: DMSO): 141 [survivor count not shown] and 147 % of control [survivor count not shown]

COC1OC(CN(CCCl)CCCl)C2OC(C)(C)OC12 (configuration not stated)
T/C (dose: 1.1 mg/kg/injection, schedule: Q04DX003 (ip), vehicle: saline): 119 % of control [survivor count not shown]
T/C (dose: 1.7 mg/kg/injection, schedule: Q04DX003 (ip), vehicle: saline): 133 % of control [survivor count not shown]
T/C (dose: 2.7 mg/kg/injection, schedule: Q04DX003 (ip), vehicle: saline): 138 % of control [survivor count not shown]
T/C (dose: 4.1 mg/kg/injection, schedule: Q04DX003 (ip), vehicle: saline): 130 % of control [survivor count not shown]
T/C (dose: 6.25 mg/kg/injection, schedule: Q04DX003 (ip), vehicle: saline): 139 % of control [survivor count not shown]

Oc1ccc(Cl)cc1CN(CCCl)CCCl
T/C (dose: 6.2 mg/kg/injection, schedule: Q04DX003 (ip), vehicle: Klucel (hydroxypropylcellulose) (HPC)): 114 % of control [survivor count not shown]
T/C (dose: 12.5 mg/kg/injection, schedule: Q04DX003 (ip), vehicle: Klucel (hydroxypropylcellulose) (HPC)): 117 % of control [survivor count not shown]
T/C (dose: 25.0 mg/kg/injection, schedule: Q01DX001 (ip), vehicle: Klucel (hydroxypropylcellulose) (HPC)): 112 % of control [survivor count not shown]
T/C (dose: 25.0 mg/kg/injection, schedule: Q04DX003 (ip), vehicle: Klucel (hydroxypropylcellulose) (HPC)): 117 % of control [survivor count not shown]
T/C (dose: 50.0 mg/kg/injection, schedule: Q01DX001 (ip), vehicle: Klucel (hydroxypropylcellulose) (HPC)): 121 % of control [survivor count not shown]
T/C (dose: 100.0 mg/kg/injection, schedule: Q01DX001 (ip), vehicle: Klucel (hydroxypropylcellulose) (HPC)): 116 % of control [survivor count not shown]
